Measurements reported in patent publication US9448244B2, “Compound, and method for measuring iron concentration by using novel compound as chelate color former” (WAKO PURE CHEMICAL INDUSTRIES, LTD., priority 2012, dated 2016).

Key:
Type in all cases: physicochemical
[1] = Absorbance measurement of iron chelate color development, first reagent solution pH 8.0 (Example 3 / Comparative Example 1); details: physiological saline as sample; R-1 tricine pH 8.0, R-2 tricine pH 8.0; color former 0.23 mM; 596/694 nm; 37° C.
Protocol: (§1) [Preparation of Reagent Solution]
(§2) (R-1) First Reagent Solution:
A 100 mM tricine buffer solution (pH 8.0) containing 0.5% (w/v) polyvinylpyrrolidone (K-90) (produced by Wako Pure Chemical Industries, Ltd.) was used as the first reagent solution.
(§3) (R-2) Second Reagent Solution:
A 100 mM tricine buffer solution (pH 8.0) containing 1 mM 4S-SPF synthesized in Example 1 or 1 mM 2S-4CPF synthesized in Example 2 was used as the second reagent solution.
Aqueous ferrous ammonium sulfate solution (containing 200 μg/dL iron) was prepared and used as a sample.
(§4) [Measurement of Absorbance]
For the above-described sample, the measurement of absorbance was carried out using the reagent solution described above, and using JEOL BM6050 automatic analyzer (manufactured by JEOL Co., Ltd.) by the following measurement conditions. In addition, when the measurement of reagent blank, measurement was carried out in the same manner using physiological saline instead of the sample.
Analysis method/Reaction time: [EPA] [10]
Measurement point: [44], [47]-[95], [98].
Wavelength (secondary/dominant): [694] [596]
Sample volume: 8 μL (2 times dilution at measurement)
(§5) Measurement temperature: 37° C.
It should be noted that the concentration of 4S-SPF or 2S-4CPF at the time of measurement was 0.23 mM.
A 100 mM tricine buffer solution (pH 8.0) containing 0.5% (w/v) polyvinylpyrrolidone (K-90) was used as the first reagent solution.
A 100 mM tricine buffer solution (pH 8.0) containing 1 mM CPF was used as the second reagent solution. The CPF was synthesized according to the method described in the Mitsuru Hoshino et al., Yakugaku Zassi, 2011, vol. 131, No. 7, p. 1095-1101 (Non-Patent Literature 1), and used.
Aqueous ferrous ammonium sulfate solution (containing 200 μg/dL iron) prepared and used as a sample.
For the above-described sample, the measurement of absorbance was carried out using the reagent solution described above and using JEOL BM6050 automatic analyzer (manufactured by JEOL Co., Ltd.) by the same measurement conditions as performed in Example 3. […]

[2] = Absorbance measurement of iron chelate color development, first reagent solution pH 3.2 (Example 4 / Comparative Example 2); details: saline as sample; R-1 glycine pH 3.2, R-2 tricine pH 9.0; color former 0.23 mM; 37° C.
Protocol: as §1, §2
A 10 mM glycine buffer solution (pH 3.2) containing 0.5% (w/v) polyvinylpyrrolidone (K-90) (produced by Wako Pure Chemical Industries, Ltd.) was used as the first reagent solution.
as §3
A 100 mM tricine buffer solution (pH 9.0) containing 1 mM 4S-SPF which was synthesized in Example 1 or 1 mM 2S-4CPF which was synthesized in Example 2 was used as the second reagent solution.
The sample used was same as used in Example 3.
as §4
For the above-described sample, the measurement of absorbance was carried out using the reagent solution described above and using JEOL BM6050 automatic analyzer (manufactured by JEOL Co., Ltd.) by the same measurement conditions as performed in Example 3.
It should be noted that, the concentration of 4S-SPF or 2S-4CPF at the time of measurement was 0.23 mM.
A 10 mM glycine buffer solution (pH 3.2) containing 0.5% (w/v) polyvinylpyrrolidone (K-90) was used as the first reagent solution.
A 100 mM tricine buffer solution (pH 9.0) containing 1 mM CPF was used as the second reagent solution. CPF was synthesized according to the method described in the Mitsuru Hoshino et al., Yakugaku Zassi, 2011, vol. 131, No. 7, p. 1095-1101 (Non-Patent Literature 1), and used.
The sample used was the same as used in Example 4.
For the above-described sample, the measurement of absorbance was carried out using the reagent solution described above and using JEOL BM6050 automatic analyzer (manufactured by JEOL Co., Ltd.) by the same measurement conditions as performed in Example 4.
It should be noted that, the concentration of the CPF at the time of measurement was 0.23

[3] = Absorption curve at 500 nm to 700 nm (Example 5 / Comparative Example 3); details: physiological saline as sample; color former 0.24 mM; spectrophotometer; 37° C.
Protocol: as §1, §2
The same first reagent solution as used in Example 3 was used.
as §3
The same second reagent solution (containing 4S-SPF or 2S-4CPF) as used in Example 3 was used.
The same sample as used in Example 3 was used.
as §4
For the above-described sample, the measurement of absorbance was carried out using the reagent solution described above and using a Hitachi U-3900H Spectrophotometer (manufactured by Hitachi High-Technologies Co., Ltd.) by the following measurement conditions. In addition, for the measurement of reagent blank, physiological saline was used.
Reaction time: 5 minutes-5 minutes
Measurement wavelength: 500 nm to 700 nm
as §5
It should be noted that the concentration of 4S-SPF or 2S-4CPF at the time of measurement was 0.24 mM.
The same first reagent solution as used in Comparative Example 1 was used.
The same second reagent solution (containing CPF) as used in Comparative Example 1 was used.
The same sample as used in Comparative Example 1 was used.
For the above-described sample, the measurement of absorbance was carried out using the reagent solution described above and using a Hitachi U-3900H Spectrophotometer by the same measurement conditions as carried out in Example 5.
It should be noted that, the concentration of CPF at the time of measurement was 0.24 mM.

| Structure (SMILES) | blank value (absorbance of reagent blank) [1] | blank value (absorbance of reagent blank) [2] | absorbance of the blank at 590 nm to 600 nm [3] |
| --- | --- | --- | --- |
| O=C(O)c1ccc(-c2c3cc(O)c(=O)cc-3oc3cc(O)c(O)cc23)c(S(=O)(=O)O)c1 [2S-4CPF, 9-(4-carboxy-2-sulfophenyl)-2,3,7-trihydroxy-6-fluorone] | suppressed lower | suppressed lower | suppressed lower |
| O=c1cc2oc3cc(O)c(O)cc3c(-c3ccc(S(=O)(=O)O)cc3S(=O)(=O)O)c-2cc1O [4S-SPF, 9-(2,4-disulfophenyl)-2,3,7-trihydroxy-6-fluorone] | suppressed lower | suppressed lower | suppressed lower |
| O=C(O)c1ccccc1-c1c2cc(O)c(=O)cc-2oc2cc(O)c(O)cc12 [CPF, 9-(2-carboxyphenyl)-2,3,7-trihydroxy-6-fluorone, reference compound] | high | high | high |
